In patent US20090022803A1, “Oral Formulations For Delivery of Catecholic Butanes Including Ndga Compounds” (priority 2005, published 2009):
Where two headings read alike, the source gives them in different places. This continues a long series; more values of the same kind are listed elsewhere.

Type: physicochemical
Details: for Dissolution After Cool Down: after heating at 60° C.
Experimental: A 10 mL solution of M4N at a concentration of about 10 mg/mL in 40% BP-β-CD was made as follows. About 10 mL of the 40% HP-β-CD solution were added to a glass beaker containing a stir bar. The beaker was placed on a magnetic plate and the stir bar was set to stir at medium speed. About […] of M4N were slowly added to the 40% HP-β-CD in the center of the beaker with the aid of a spatula. The M4N/40% HP-β-CD mixture was stirred for 2 hr or until all M4N was uniformly suspended without any clumps being present. The M4N/40% HP-β-CD mixture was optionally heated at 80° C. for about 30 min. (or longer if a larger volume of solution was desired, for example, 1 hr at 80° C. for 100 mL of the M4N/HP-β-CD mixture), or longer as needed to ensure complete dissolution of M4N. […] The final M4N/40% HP-β-CD solution was stored at room temperature and was kept protected from light. This process may be scaled up or down to obtain the requisite volume or concentration of M4N. Formulations containing M4N in other cyclodextrin solutions may be similarly made, such as, for example, by substituting HP-β-CD in the process described above with other cyclodextrins. […]
A 10 mL solution of M4N at a concentration of about 10 mg/mL in 50% HP-β-CD/0.5% HPMC was made as follows. About 10 mL of the 50% HP-β-CD/0.5% HPMC solution were added to a glass beaker containing a stir bar. The beaker was placed on a magnetic plate and the stir bar was set to stir at medium speed. About 100 mg of M4N were slowly added to the 50% HP-β-CD/0.5% HPMC in the center of the beaker with the aid of a spatula. The M4N/50% HP-β-CD/0.5% HPMC mixture was stirred for 24 hr or until all M4N was uniformly suspended without any clumps being present. The M4N/50% HP-β-CD/0.5% HPMC mixture was heated at about 90° C. for about 30 min. (or longer if a larger volume of solution was desired, for example, 1 hr at 90° C. for 500 mL of the M4N/50% HP-β-CD/0.5% HPMC mixture), or longer as needed to ensure complete dissolution of M4N. […] The final M4N/50% HP-β-CD/0.5% HPMC solution was stored at room temperature and was kept protected from light.
A 10 mL solution of M4N at a concentration of about 20 mg/mL in 5% EC (w/v) (the “EC formulation”) was made as follows. About 10 mL of 5% EC formulation, made as described above, were added to a glass beaker containing a stir bar. The beaker was placed on a magnetic plate and the stir bar was set to stir at medium speed, and covered with a round Teflon® cover. About 200 mg of M4N were slowly added to the 5% EC formulation in the center of the beaker with the aid of a spatula to prevent M4N from sticking to the beaker wall. The M4N/EC mixture was stirred for 2 hr or until all M4N had dissolved or was uniformly suspended without any clumps being present. The M4N/EC mixture was heated at about 60° C. for about 30 min. (or longer if a larger volume of solution was desired, for example, 1 hr at 60° C. for 500 mL of the M4N/EC mixture), or longer as needed to ensure complete dissolution of M4N. […] The final M4N/EC solution was stored at room temperature and was kept protected from light.
A 10 mL solution of M4N at a concentration of about 50 mg/mL in sesame oil was made as follows. About 10 mL of sesame oil were added to a glass beaker containing a stir bar. The beaker was placed on a magnetic plate and the stir bar was set to stir at medium speed. About 500 mg of M4N were slowly added to the sesame oil in the center of the beaker with the aid of a spatula to prevent M4N from sticking to the beaker wall. The M4N/sesame oil mixture was stirred for about 2 hr or until all M4N had dissolved or was uniformly suspended without any clump being present. The M4N/sesame oil mixture was heated at about 60° C. for about 30 min. (or longer if a larger volume of solution was desired, for example, 1 hr at 60° C. for 500 mL of the M4N/sesame oil mixture), or longer as need to ensure complete dissolution of M4N. […]

[1] = Glycerol Monoleate 100% (w/v), M4N 1.00 mg/ml
[2] = Glycerol Monoleate 100% (w/v), M4N 5.0 mg/ml
[3] = Glycerol Monoleate 100% (w/v), M4N 10.0 mg/ml
[4] = Glycerol Monoleate 100% (w/v), M4N 12.0 mg/ml
[5] = Glycerol Monoleate 100% (w/v), M4N 15.0 mg/ml
[6] = Glycerol Monoleate 100% (w/v), M4N 17.5 mg/ml
[7] = Glycerol Monoleate 100% (w/v), M4N 20.0 mg/ml
[8] = Glycerol Monoleate 100% (w/v), M4N 25.0 mg/ml
[9] = Glycerol Monoleate 100% (w/v), M4N 30.0 mg/ml
[10] = Glycerol Monoleate 100% (w/v), M4N 40.0 mg/ml
[11] = Glycerol Monoleate 100% (w/v), M4N 50.0 mg/ml
[12] = Glycerol Monoleate 100% (w/v), M4N 60.0 mg/ml
[13] = Glycerol Monoleate 100% (w/v), M4N 65.0 mg/ml
[14] = Glycerol Monoleate 100% (w/v), M4N 70.0 mg/ml
[15] = Glycerol Monoleate 100% (w/v), M4N 80.0 mg/ml
[16] = Glycerol Monoleate 100% (w/v), M4N 100.0 mg/ml
[17] = Glycerol Monoleate 100% (w/v), M4N 200.0 mg/ml
[18] = Glycerol Monoleate 100% (w/v), M4N 300.0 mg/ml
[19] = Glycerol Monostearate 15% (w/v) solution in water, M4N 60 mg/mL
Throughout, for Dissolution After Cool Down: key: N represents 'No'; Y represents 'Yes.'.

COc1ccc(C[C@@H](C)[C@@H](C)Cc2ccc(OC)c(OC)c2)cc1OC [Formulation M4N, meso-1,4-bis(3,4-dimethoxyphenyl)-2,3-dimethylbutane]
Suspension: Dissolution After Cool Down [1] | Dissolution After Cool Down [2] | Dissolution After Cool Down [3] | Dissolution After Cool Down [4] | Dissolution After Cool Down [5] | Dissolution After Cool Down [6] | Dissolution After Cool Down [7] | Dissolution After Cool Down [8] | Dissolution After Cool Down [9] | Dissolution After Cool Down [10] | Dissolution After Cool Down [11] | Dissolution After Cool Down [12] | Dissolution After Cool Down [13] | Dissolution After Cool Down [14] | Dissolution After Cool Down [15] | Dissolution After Cool Down [16] | Dissolution After Cool Down [17] | Dissolution After Cool Down [18]
Y at 90 °C: Dissolution After Heating (M4N 1 mg/mL in 50% HP-β-CD, 0.5% HPMC, 90° C.)
suspension: Dissolution After Cool Down (Labrasol ® 100%, M4N 90 mg/mL) | Dissolution After Cool Down (Labrasol ® 100%, M4N 100 mg/mL) | Dissolution After Cool Down (Labrasol ® 100%, M4N 200 mg/mL)
N at 90 °C: Dissolution After Heating (M4N 1 mg/mL in 1% CMC (High Viscosity), 90° C.) | Dissolution After Heating (M4N 1 mg/mL in 2% MC (Low viscosity), 90° C.) | Dissolution After Heating (M4N 1 mg/mL in 4% CMC (Low Viscosity), 90° C.)
Y: Dissolution After Cool Down (Labrafil ® 100%, M4N 60 mg/mL) | Dissolution After Cool Down (Labrasol ® 100%, M4N 50 mg/mL) | Dissolution After Cool Down (Labrasol ® 100%, M4N 60 mg/mL) | Dissolution After Cool Down (Labrasol ® 100%, M4N 70 mg/mL) | Dissolution After Cool Down (Labrasol ® 100%, M4N 80 mg/mL)
Y at 60 °C: Dissolution After Heating (Glycerol Monoleate 100% (w/v), M4N 0.25 mg/ml, heating at 60° C.) | Dissolution After Heating (Glycerol Monoleate 100% (w/v), M4N 1.00 mg/ml, heating at 60° C.) | Dissolution After Heating (Glycerol Monoleate 100% (w/v), M4N 5.0 mg/ml, heating at 60° C.) | Dissolution After Heating (Glycerol Monoleate 100% (w/v), M4N 10.0 mg/ml, heating at 60° C.) | Dissolution After Heating (Glycerol Monoleate 100% (w/v), M4N 12.0 mg/ml, heating at 60° C.) | Dissolution After Heating (Glycerol Monoleate 100% (w/v), M4N 15.0 mg/ml, heating at 60° C.) | Dissolution After Heating (Glycerol Monoleate 100% (w/v), M4N 17.5 mg/ml, heating at 60° C.) | Dissolution After Heating (Glycerol Monoleate 100% (w/v), M4N 20.0 mg/ml, heating at 60° C.) | Dissolution After Heating (Glycerol Monoleate 100% (w/v), M4N 25.0 mg/ml, heating at 60° C.) | Dissolution After Heating (Glycerol Monoleate 100% (w/v), M4N 30.0 mg/ml, heating at 60° C.) | Dissolution After Heating (Glycerol Monoleate 100% (w/v), M4N 40.0 mg/ml, heating at 60° C.) | Dissolution After Heating (Glycerol Monoleate 100% (w/v), M4N 50.0 mg/ml, heating at 60° C.) | Dissolution After Heating (Glycerol Monoleate 100% (w/v), M4N 60.0 mg/ml, heating at 60° C.) | Dissolution After Heating (Glycerol Monoleate 100% (w/v), M4N 65.0 mg/ml, heating at 60° C.) | Dissolution After Heating (Glycerol Monoleate 100% (w/v), M4N 70.0 mg/ml, heating at 60° C.) | Dissolution After Heating (Glycerol Monoleate 100% (w/v), M4N 80.0 mg/ml, heating at 60° C.) | Dissolution After Heating (Glycerol Monoleate 100% (w/v), M4N 100.0 mg/ml, heating at 60° C.) | Dissolution After Heating (Glycerol Monoleate 100% (w/v), M4N 200.0 mg/ml, heating at 60° C.) | Dissolution After Heating (Glycerol Monoleate 100% (w/v), M4N 300.0 mg/ml, heating at 60° C.) | Dissolution After Heating (Labrafil ® 100%, M4N 60 mg/mL, heating at 60° C.) | Dissolution After Heating (Labrafil ® 100%, M4N 200 mg/mL, heating at 60° C.) | Dissolution After Heating (Labrasol ® 100%, M4N 50 mg/mL, heating at 60° C.) | Dissolution After Heating (Labrasol ® 100%, M4N 60 mg/mL, heating at 60° C.) | Dissolution After Heating (Labrasol ® 100%, M4N 70 mg/mL, heating at 60° C.) | Dissolution After Heating (Labrasol ® 100%, M4N 80 mg/mL, heating at 60° C.) | Dissolution After Heating (Labrasol ® 100%, M4N 90 mg/mL, heating at 60° C.) | Dissolution After Heating (Labrasol ® 100%, M4N 100 mg/mL, heating at 60° C.) | Dissolution After Heating (Labrasol ® 100%, M4N 200 mg/mL, heating at 60° C.)
N: Dissolution After Rotation [1] | Dissolution After Rotation [2] | Dissolution After Rotation [3] | Dissolution After Rotation [4] | Dissolution After Rotation [5] | Dissolution After Rotation [6] | Dissolution After Rotation [7] | Dissolution After Rotation [8] | Dissolution After Rotation [9] | Dissolution After Rotation [10] | Dissolution After Rotation [11] | Dissolution After Rotation [12] | Dissolution After Rotation [13] | Dissolution After Rotation [14] | Dissolution After Rotation [15] | Dissolution After Rotation [16] | Dissolution After Rotation [17] | Dissolution After Rotation [18] | Dissolution After Heating [19] | Dissolution After Rotation [19] | Dissolution After Rotation (Labrafil ® 100%, M4N 60 mg/mL) | Dissolution After Rotation (Labrafil ® 100%, M4N 200 mg/mL) | Dissolution After Rotation (Labrasol ® 100%, M4N 50 mg/mL) | Dissolution After Rotation (Labrasol ® 100%, M4N 60 mg/mL) | Dissolution After Rotation (Labrasol ® 100%, M4N 70 mg/mL) | Dissolution After Rotation (Labrasol ® 100%, M4N 80 mg/mL) | Dissolution After Rotation (Labrasol ® 100%, M4N 90 mg/mL) | Dissolution After Rotation (Labrasol ® 100%, M4N 100 mg/mL) | Dissolution After Rotation (Labrasol ® 100%, M4N 200 mg/mL) | Dissolution After Rotation (M4N 1 mg/mL in 1% CMC (High Viscosity)) | Dissolution After Rotation (M4N 1 mg/mL in 4% CMC (Low Viscosity)) | Dissolution After Rotation (M4N 1 mg/mL in Corn Oil)
Creamy: Dissolution After Cool Down (Labrafil ® 100%, M4N 200 mg/mL)
